According to patent US8530493B2, “Indolopyridines as Eg5 kinesin modulators” (4SC AG, priority 2006, dated 2013):
Some results were stated once for a whole list of compounds, not compound by compound.

biological target: T1, Eg5 kinesin motor domains (Homo sapiens, UniProt P52732); assay: ATPase activity of Eg5 kinesin motor domains (Malachite green); assay type: biochemical; details: 300 μM ATP, 30 min, room temperature
T1 construct: The ATPase activity of Eg5 kinesin motor domains (Cytoskeleton, cat. No. EG01) can be used; purchased Cytoskeleton EG01
T1 sequence (P52732 18-359 limits assumed): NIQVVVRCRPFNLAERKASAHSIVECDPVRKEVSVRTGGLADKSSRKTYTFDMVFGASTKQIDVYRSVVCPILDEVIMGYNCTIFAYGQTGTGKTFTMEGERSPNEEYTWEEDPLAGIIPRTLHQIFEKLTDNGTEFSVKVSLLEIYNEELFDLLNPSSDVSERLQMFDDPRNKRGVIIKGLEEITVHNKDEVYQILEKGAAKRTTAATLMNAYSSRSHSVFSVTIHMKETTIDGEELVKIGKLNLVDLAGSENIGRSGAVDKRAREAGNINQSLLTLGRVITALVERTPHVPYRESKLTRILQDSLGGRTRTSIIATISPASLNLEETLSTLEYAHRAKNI

Row | Structure (SMILES) | Inhibition of Eg5 activity, −log IC50
1 | CNCCN1C(=O)N2[C@H](c3cccc(O)c3)c3[nH]c4ccc(OC)cc4c3C[C@@]2(C)C1=O (racemic) [Example 27, (3aSR,10RS)-10-(3-Hydroxy-phenyl)-6-methoxy-3a-methyl-2-(2-methylamino-ethyl)-3a,4,9,10-tetrahydro-2,9,10a-triaza-cyclopenta[b]fluorene-1,3-dione] | compounds are all ≧6.3 mol/l
2 | CNCCN1C(=O)N2[C@H](c3cccc(O)c3)c3[nH]c4ccc(Cl)cc4c3C[C@@]2(C)C1=O (racemic) [Example 28, (3aSR,10RS)-6-Chloro-10-(3-hydroxy-phenyl)-3a-methyl-2-(2-methylamino-ethyl)-3a,4,9,10-tetrahydro-2,9,10a-triaza-cyclopenta[b]fluorene-1,3-dione] | compounds are all ≧6.3 mol/l
3 | C[C@@]12Cc3c([nH]c4ccc(Cl)cc34)[C@@H](c3cccc(O)c3)N1C(=O)N(CCN1CCC1)C2=O (racemic) [Example 29, (3aSR,10RS)-2-(2-Azetidin-1-yl-ethyl)-6-chloro-10-(3-hydroxy-phenyl)-3a-methyl-3a,4,9,10-tetrahydro-2,9,10a-triaza-cyclopenta[b]fluorene-1,3-dione] | compounds are all ≧6.3 mol/l
4 | C[C@@]12Cc3c([nH]c4ccc(Cl)cc34)[C@@H](c3cccc(O)c3)N1C(=O)N(CCN)C2=O (racemic) [Example 30, (3aSR,10RS)-2-(2-Amino-ethyl)-6-chloro-10-(3-hydroxy-phenyl)-3a-methyl-3a,4,9,10-tetrahydro-2,9,10a-triaza-cyclopenta[b]fluorene-1,3-dione] | compounds are all ≧6.3 mol/l
5 | C[C@@]12Cc3c([nH]c4ccc(Cl)cc34)[C@@H](c3cccc(O)c3)N1C(=O)N(CCn1ccnc1)C2=O (racemic) [Example 31, (3aSR,10RS)-6-Chloro-10-(3-hydroxy-phenyl)-2-(2-imidazol-1-yl-ethyl)-3a-methyl-3a,4,9,10-tetrahydro-2,9,10a-triaza-cyclopenta[b]fluorene-1,3-dione] | compounds are all ≧6.3 mol/l
6 | COc1ccc2[nH]c3c(c2c1)C[C@@]1(C)C(=O)N(CCN2CCN(C(C)=O)CC2)C(=O)N1[C@@H]3c1cccc(O)c1 (racemic) [Example 32, (3aSR,10RS)-2-[2-(4-Acetyl-piperazin-1-yl)-ethyl]-10-(3-hydroxy-phenyl)-6-methoxy-3a-methyl-3a,4,9,10-tetrahydro-2,9,10a-triaza-cyclopenta[b]fluorene-1,3-dione] | compounds are all ≧6.3 mol/l
7 | COc1ccc2[nH]c3c(c2c1)C[C@@]1(C)C(=O)N(CCN2CCC2)C(=O)N1[C@@H]3c1cccc(O)c1 (racemic) [Example 33, (3aSR,10RS)-2-(2-Azetidin-1-yl-ethyl)-10-(3-hydroxy-phenyl)-6-methoxy-3a-methyl-3a,4,9,10-tetrahydro-2,9,10a-triaza-cyclopenta[b]fluorene-1,3-dione] | compounds are all ≧6.3 mol/l
8 | COc1ccc2[nH]c3c(c2c1)C[C@@]1(C)C(=O)N(CCN2CCC(F)(F)C2)C(=O)N1[C@@H]3c1cccc(O)c1 (racemic) [Example 34, (3aSR,10RS)-2-[2-(3,3-Difluoro-pyrrolidin-1-yl)-ethyl]-10-(3-hydroxy-phenyl)-6-methoxy-3a-methyl-3a,4,9,10-tetrahydro-2,9,10a-triaza-cyclopenta[b]fluorene-1,3-dione] | compounds are all ≧6.3 mol/l
9 | CCNCCN1C(=O)N2[C@H](c3cccc(O)c3)c3[nH]c4ccc(OC)cc4c3C[C@@]2(C)C1=O (racemic) [Example 35, (3aSR,10RS)-2-(2-Ethylamino-ethyl)-10-(3-hydroxy-phenyl)-6-methoxy-3a-methyl-3a,4,9,10-tetrahydro-2,9,10a-triaza-cyclopenta[b]fluorene-1,3-dione] | compounds are all ≧6.3 mol/l
10 | CCNCCN1C(=O)N2[C@H](c3cccc(O)c3)c3[nH]c4ccc(Cl)cc4c3C[C@@]2(C)C1=O (racemic) [Example 37, (3aSR,10RS)-6-Chloro-2-(2-ethylamino-ethyl)-10-(3-hydroxy-phenyl)-3a-methyl-3a,4,9,10-tetrahydro-2,9,10a-triaza-cyclopenta[b]fluorene-1,3-dione] | compounds are all ≧6.3 mol/l
11 | CC(C)NCCN1C(=O)N2[C@H](c3cccc(O)c3)c3[nH]c4ccc(Cl)cc4c3C[C@@]2(C)C1=O (racemic) [Example 38, (3aSR,10RS)-6-Chloro-10-(3-hydroxy-phenyl)-2-(2-isopropylamino-ethyl)-3a-methyl-3a,4,9,10-tetrahydro-2,9,10a-triaza-cyclopenta[b]fluorene-1,3-dione] | compounds are all ≧6.3 mol/l
12 | CC(C)N(C)CCN1C(=O)N2[C@H](c3cccc(O)c3)c3[nH]c4ccc(Cl)cc4c3C[C@@]2(C)C1=O (racemic) [Example 39, (3aSR,10RS)-6-Chloro-10-(3-hydroxy-phenyl)-2-[2-(isopropyl-methyl-amino)-ethyl]-3a-methyl-3a,4,9,10-tetrahydro-2,9,10a-triaza-cyclopenta[b]fluorene-1,3-dione] | compounds are all ≧6.3 mol/l
13 | CCN(C)CCN1C(=O)N2[C@H](c3cccc(O)c3)c3[nH]c4ccc(Cl)cc4c3C[C@@]2(C)C1=O (racemic) [Example 40, (3aSR,10RS)-6-Chloro-2-[2-(ethyl-methyl-amino)-ethyl]-10-(3-hydroxy-phenyl)-3a-methyl-3a,4,9,10-tetrahydro-2,9,10a-triaza-cyclopenta[b]fluorene-1,3-dione] | compounds are all ≧6.3 mol/l
14 | CCOc1ccc2[nH]c3c(c2c1)C[C@@]1(C)C(=O)N(CCNC)C(=O)N1[C@@H]3c1cccc(O)c1 (racemic) [Example 41, (3aSR,10RS)-6-Ethoxy-10-(3-hydroxy-phenyl)-3a-methyl-2-(2-methylamino-ethyl)-3a,4,9,10-tetrahydro-2,9,10a-triaza-cyclopenta[b]fluorene-1,3-dione] | compounds are all ≧6.3 mol/l
15 | CNCCN1C(=O)N2[C@H](c3cccc(O)c3)c3[nH]c4ccc(OC(F)F)cc4c3C[C@@]2(C)C1=O (racemic) [Example 42, (3aSR,10RS)-6-(1,1-Difluoro-methoxy)-10-(3-hydroxy-phenyl)-3a-methyl-2-(2-methylaminoethyl)-3a,4,9,10-tetrahydro-2,9,10a-triaza-cyclopenta[b]fluorene-1,3-dione] | compounds are all ≧6.3 mol/l
16 | CN(C)CCN1C(=O)N2[C@H](c3cccc(O)c3)c3[nH]c4ccc(OC(F)F)cc4c3C[C@@]2(C)C1=O (racemic) [Example 43, (3aSR,10RS)-6-(1,1-Difluoro-methoxy)-2-(2-dimethylamino-ethyl)-10-(3-hydroxy-phenyl)-3a-methyl-3a,4,9,10-tetrahydro-2,9,10a-triaza-cyclopenta[b]fluorene-1,3-dione] | compounds are all ≧6.3 mol/l
17 | C[C@@]12Cc3c([nH]c4ccc(OC(F)F)cc34)[C@@H](c3cccc(O)c3)N1C(=O)N(CCN1CCC1)C2=O (racemic) [Example 44, (3aSR,10RS)-2-(2-Azetidin-1-yl-ethyl)-6-(1,1-difluoro-methoxy)-10-(3-hydroxy-phenyl)-3a-methyl-3a,4,9,10-tetrahydro-2,9,10a-triaza-cyclopenta[b]fluorene-1,3-dione] | compounds are all ≧6.3 mol/l
18 | CCOc1ccc2[nH]c3c(c2c1)C[C@@]1(C)C(=O)N(CCN)C(=O)N1[C@@H]3c1cccc(O)c1 (racemic) [Example 45, (3aSR,10RS)-2-(2-Amino-ethyl)-6-ethoxy-10-(3-hydroxy-phenyl)-3a-methyl-3a,4,9,10-tetrahydro-2,9,10a-triaza-cyclopenta[b]fluorene-1,3-dione] | compounds are all ≧6.3 mol/l
19 | CCOc1ccc2[nH]c3c(c2c1)C[C@@]1(C)C(=O)N(CCN2CCC2)C(=O)N1[C@@H]3c1cccc(O)c1 (racemic) [Example 46, (3aSR,10RS)-2-(2-Azetidin-1-yl-ethyl)-6-ethoxy-10-(3-hydroxy-phenyl)-3a-methyl-3a,4,9,10-tetrahydro-2,9,10a-triaza-cyclopenta[b]fluorene-1,3-dione] | compounds are all ≧6.3 mol/l
20 | COc1ccc2[nH]c3c(c2c1)C[C@@]1(C)C(=O)N(CCNC(C)C)C(=O)N1[C@@H]3c1cccc(O)c1 (racemic) [Example 47, (3aSR,10RS)-10-(3-Hydroxy-phenyl)-2-(2-isopropylamino-ethyl)-6-methoxy-3a-methyl-3a,4,9,10-tetrahydro-2,9,10a-triaza-cyclopenta[b]fluorene-1,3-dione] | compounds are all ≧6.3 mol/l
21 | COc1ccc2[nH]c3c(c2c1)C[C@@]1(C)C(=O)N(CCNCC2CC2)C(=O)N1[C@@H]3c1cccc(O)c1 (racemic) [Example 48, (3aSR,10RS)-2-[2-(Cyclopropylmethyl-amino)-ethyl]-10-(3-hydroxy-phenyl)-6-methoxy-3a-methyl-3a,4,9,10-tetrahydro-2,9,10a-triaza-cyclopenta[b]fluorene-1,3-dione] | compounds are all ≧6.3 mol/l
22 | COc1ccc2[nH]c3c(c2c1)C[C@@]1(C)C(=O)N(CCNCC(C)C)C(=O)N1[C@@H]3c1cccc(O)c1 (racemic) [Example 49, (3aSR,10RS)-10-(3-Hydroxy-phenyl)-2-(2-isobutylamino-ethyl)-6-methoxy-3a-methyl-3a,4,9,10-tetrahydro-2,9,10a-triaza-cyclopenta[b]fluorene-1,3-dione] | compounds are all ≧6.3 mol/l
